No constants are given. Whether binding was seen depends on the method and setting. Binding seen in cells or lysates may run through a third protein. Some results given as binding are weak or reduced against the parent protein; the word gives no strength. Tags and fused reporters may be left off the sequences shown.
Columns and labels:
[1] = target: Nb776 (llama); test: pull-down
[2] = target: Nb777 (llama); test: pull-down

binding [1]: binds | binding [2]: binds
B1: EGFP-fused mouse brain membrane protein IgSF8 (protein, UniProt Q8R366 26-611)
chain: RQVHVPRGPLYRVAGTAVSISCNVSDYEGPAQQDFEWFMYRPEAPATSLGIVSTKDSQFSYAVFGPRVASGDLQVQRLKGDSVVLKIARLQAQDSGFYECYTPSTDTQYLGNYSAKVELRVLPDELQVSAAPPGPRGRQAATSPSRLTVHEGQELALGCLAQTKTKKHTHLSVSFGRAIPEAPVGRATLQEVVGLRSDMAVEAGAPYAERLASGELRLSKEGTDRYRMVVGGAQAGDSGTYHCTAAEWIQDPDGSWVQVAEKRAVLAHVDVQTLSSQLAVTVGPGERRIGPGEPLELLCNVSGALPPPGRHAAYSVGWEMAPAGAPGPGRLVAQLDTEGIGSLGPGYEDRHIAMEKVASRTYRLRLEAARPADAGTYRCLAKAYVRGSGTRLREAASARSRPLPVHVREEGVVLEAVAWLAGGTVYRGETASLLCNISVRGGPPGLRLAASWWVERPEEGELSSGPAQLVGGVGQDGVAELGVRPGGGPVSVELVGPRSHRLRLHGLGPEDEGIYHCAPSAWVQHADYSWYQAGSARSGPVTVYPYTHAVDTLFVPLLVGTGVALVTGASVLATITCCFMKRMRKR

Reference: doi:10.1101/2024.06.26.600780
